# Measurements from PubChem BioAssay AID2685 (National Center for Advancing Translational Sciences (NCATS), 2010).
# This is one part of the list. Shown are side measurements of this screen, not its main read-out; they come without a call. Compounds called inactive in the main read-out are mostly missing here. Potencies come from curve fits of mixed quality, noted in brackets.
# Assay: qHTS Assay for Lipid Storage Modulators in Drosophila S3 Cells;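 on cell number change: cells counted by Cell Tracker Red CMTPX staining in the red channel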
# Conditions: BODIPY lipid droplet fluorescence, 18-24 h; for cell number change: measured here: cell count max response, cells fed with added oleic acid
# Outline: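 Drosophila S3 cells loaded with oleic acid (400 uM, as added) and compounds at several concentrations; lipid droplets imaged by 488-nm laser-scanning cytometry, 500–530 nm intensity and object ratio to cell channel. Percent activity normalized to 20 uM Triacsin C.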
# [1] = measured here: cell number channel AC50, cells fed with added oleic acid
# [2] = measured here: lipid fluorescence (Fed channel) AC50, cells fed with added oleic acid
Compound,cell number change [%],AC50 [1],AC50 [2]
O=C(COC(=O)c1cc(S(=O)(=O)N2CCOCC2)ccc1O)NCc1ccc2c(c1)OCO2,92,"20.6 µM [rising, partial curve]",
CCOC(=O)c1c(NC(=O)c2cc(-c3ccc(Cl)s3)nc3ccccc23)sc(C(N)=O)c1C,26.5,,
COc1ccc(NS(=O)(=O)c2ccc(C)c(C(=O)N3CCCCCCC3)c2)cc1,-30.3,,"8.2 µM [falling, partial curve]"
O=C(Nc1ccc(NC(=O)C2CC2)cc1)c1cccs1,-13.4,,
CCn1ncc([N+](=O)[O-])c1C(=O)N1CCCC1,-53.5,,"18.4 µM [falling, partial curve]"
CC1CCN(CCC(=O)Nc2ccccc2)CC1,,,"1.84 µM [falling, partial curve]"
CCCCOC(=O)COc1ccc(Cl)cc1Cl,-37.8,"0.731 µM [falling, partial curve]","4.61 µM [falling, single point]"
O=C(NCc1nc2ccccc2[nH]1)c1cc2ccccc2oc1=O,,"0.184 µM [rising, full curve]","0.58 µM [rising, partial curve]"
Cc1nc(=O)c(-c2ccccc2)c(C)n1-c1ccc(Br)cc1,-26.4,"0.92 µM [falling, full curve, poor fit]",
CN(C)S(=O)(=O)NCCNc1ccc(C(F)(F)F)cc1[N+](=O)[O-],91.4,,
CCN(c1ccccc1)S(=O)(=O)c1ccc(OC)c(NC(=O)COc2ccc(C(C)=O)cc2)c1,28.1,,"6.51 µM [rising, partial curve]"
CCOC(=O)c1cnc(SC2CCc3ccccc3C2=O)nc1N (stereo not drawn),7.71,"2.59 µM [rising, single point]",
Cc1cc(NC(=O)C2CC2)ccc1NC(=O)c1cccs1,-5.56,"0.00461 µM [falling, full curve, poor fit]",
O=C1CSc2nc3ccccc3n21,-12.5,,"6.51 µM [rising, single point]"
Cc1ccc2c(NC(=O)C3CC3)c(C)ccc2n1,1.08,,"29.1 µM [rising, single point]"
Cc1ccc(NC(=O)CSc2nccn(-c3ccc4c(c3)OCCO4)c2=O)cc1,-50,"7.31 µM [falling, partial curve]",
CCc1nc(SCC(=O)Nc2ccccc2OC)c2c(C)c(C)sc2n1,7.89,,"35.5 µM [falling, single point]"
CC1(C)CC(C#N)(N2CCOCC2)CCO1 (stereo not drawn),-13.7,"0.82 µM [falling, full curve, poor fit]","0.731 µM [falling, full curve, poor fit]"
O=c1c(-c2n[nH]c(=S)n2-c2ccccc2)cccn1Cc1cccc(Cl)c1,10.2,,
CN(CC(=O)Nc1ccc(F)c(F)c1F)C(=O)C1CCN(C(=O)Nc2ccccc2)CC1,-7.8,,
Cc1ccc(-c2n[nH]c(=S)n2/N=C/c2cc3c(cc2[N+](=O)[O-])OCO3)cc1,2.8,"6.51 µM [falling, single point]",

# Structures from the list above containing an aryl methoxy group (three):
Compound,cell number change [%],AC50 [1],AC50 [2]
COc1ccc(NS(=O)(=O)c2ccc(C)c(C(=O)N3CCCCCCC3)c2)cc1,-30.3,,"8.2 µM [falling, partial curve]"
CCN(c1ccccc1)S(=O)(=O)c1ccc(OC)c(NC(=O)COc2ccc(C(C)=O)cc2)c1,28.1,,"6.51 µM [rising, partial curve]"
CCc1nc(SCC(=O)Nc2ccccc2OC)c2c(C)c(C)sc2n1,7.89,,"35.5 µM [falling, single point]"

# (list continues)

Compound,cell number change [%],AC50 [1],AC50 [2]
O=C(CSC1CCCCC1)N1CCN(c2ccccc2)CC1,10.7,,
CCN(CC)Cc1nc2c(c(=O)[nH]1)C1(CCCC1)Cc1ccccc1-2,-58.2,"16.4 µM [falling, partial curve]","20.6 µM [falling, partial curve, poor fit]"
Cc1ccc(NC(=O)Cc2nnc(SCC(=O)Nc3nncs3)n2C)c(C)c1,9.46,,"4.11 µM [rising, full curve]"
CN1CCN(C(=O)C2CCN(c3ncnc4c3nc3n4CCCCC3)CC2)CC1,0.597,,
CCN(CC)c1ccc(C(=O)OCC(=O)Nc2ccccc2-c2ccccc2)cc1,3.03,"0.517 µM [rising, partial curve]","1.64 µM [rising, partial curve]"
O=c1[nH]c(N/N=C/c2ccccc2)nc2ccccc12,64.1,"20.6 µM [rising, single point]",
O=C(Cc1cccs1)N1CCN(S(=O)(=O)c2ccc(Cl)c(C(F)(F)F)c2)CC1,-20.9,"0.366 µM [falling, full curve, poor fit]",
CCCCNS(=O)(=O)/C=C/c1ccccc1,9.25,,"0.731 µM [falling, single point]"
CN(NC(=O)Nc1ccc(Cl)cc1)c1c(Cl)c(Cl)nn1C,,"3.66 µM [rising, single point]","3.66 µM [rising, full curve]"
COc1ccc2nc(C)cc(N3CCN(S(=O)(=O)c4ccccc4F)CC3)c2c1,-10.4,,"6.51 µM [rising, single point]"
CC(C)c1nc2sc3c(c2c(=O)o1)CCCC3,-10,,
N#Cc1ccc(C(=O)NNC(=O)c2ccncc2)cc1,35.8,,"29.1 µM [rising, single point]"
CCn1nnnc1NCc1ccc(Cl)cc1,2.35,,"10.3 µM [rising, partial curve]"
Cc1ccc(S(=O)(=O)N2CCOCC2)cc1NC(=O)COC(=O)c1cc[n+]([O-])cc1,-23.7,"6.51 µM [falling, single point]","4.11 µM [falling, single point]"
COc1ccc2c(c1)CC[C@@H]1[C@@H]2CC[C@]2(C)[C@@H](C(=O)O)C[C@@H]12,-20.2,,"11.6 µM [rising, partial curve, poor fit]"
Cc1ccc(S(=O)(=O)N2CCN(CC(=O)NCC3(N4CCOCC4)CCCCC3)CC2)cc1,,,"6.51 µM [falling, partial curve, poor fit]"
C1CCC2=NCCCN2CC1,-14.1,"6.51 µM [falling, single point]",
COc1ccc(CCNC(=O)CSc2nncs2)cc1,1.88,,"32.6 µM [falling, partial curve, poor fit]"
COc1ccc(C(=O)N2CCN(c3ccccc3)CC2)cc1S(=O)(=O)N1CCCC1,17.8,,"29.1 µM [rising, single point]"
Cc1cc(C)c(C)c(Cn2c(CO)nc3ccccc32)c1C,-42.5,"29.1 µM [falling, single point]","29.1 µM [falling, single point]"
N=C1C(c2ccccc2)=C(O)CN1CCCO,35.9,"16.4 µM [rising, single point]","29.1 µM [rising, single point]"

Compound,cell number change [%],AC50 [1],AC50 [2]
CCN(CC)CCCNC(=O)c1ccc2c(SCC(=O)O)c3c(nc2c1)CCC3,33.7,"29.1 µM [rising, single point]","14.6 µM [falling, partial curve]"
C=CCSc1nnnn1-c1ccc(OC)cc1,20,,"6.51 µM [falling, single point]"
CCCC(NS(=O)(=O)c1ccc(-c2ccc(=O)[nH]n2)s1)c1cccs1 (stereo not drawn),-10,,
Cc1cc(C)n2nc(SCC(=O)Nc3ccccc3)nc2n1,137,,"29.1 µM [rising, single point]"
O=c1c2[nH]c3ccccc3c2ncn1Cc1ccccn1,-10.6,,"0.651 µM [falling, partial curve, poor fit]"
Cc1cc(C(=O)CSc2nnc(-c3ccc(Cl)cc3)n2CC2CCCO2)c(C)n1C (stereo not drawn),5.94,,
CCCSc1ccc(-c2nn(-c3ccccc3)cc2/C=C(/C#N)C(=O)NCCCOC)cc1,-83.3,"29.1 µM [falling, single point]",
CC(C)NC(=O)CS(=O)(=O)c1ccccc1,4.19,,
COC(CNC(=O)c1ccc(N2CCc3ccccc32)c([N+](=O)[O-])c1)OC,,,"18.4 µM [falling, partial curve]"
CN(C)n1cnc2ccsc2c1=O,31.1,"5.17 µM [falling, single point]",
CCN(CC)c1ccc(NC(=O)COC(=O)c2cccs2)cc1,,,"0.092 µM [rising, partial curve, poor fit]"
Cn1c(=O)c2c(SCC(=O)NCc3ccco3)nc(CC(C)(C)C)nc2n(C)c1=O,-15.7,,
COc1ccc(NC(=O)CSc2n[nH]c(CNc3cccc(C)c3)n2)cc1,2.63,"1.64 µM [falling, partial curve]",
Cc1ccc(-n2c(SCC(=O)OC(C)C)nnc2-c2ccco2)cc1,34.5,"6.51 µM [rising, single point]","5.17 µM [rising, partial curve]"
Cc1ccn(CC(=O)NC2CCCN(Cc3ccc(CC(C)C)cc3)C2)n1 (stereo not drawn),26.7,"6.51 µM [rising, single point]","3.26 µM [rising, partial curve]"
CC1CC(C)CN(S(=O)(=O)N2CCCC(C(=O)NC3CCCCC3C)C2)C1 (stereo not drawn),18.8,,
O=C(/C=C(/c1ccc(Cl)cc1)n1cncn1)c1ccccc1,-5.45,,"7.31 µM [rising, partial curve]"
Cc1ccc(NC(=O)COC(=O)/C=C/c2ccccc2)cc1S(=O)(=O)N1CCOCC1,6.87,,
C/C(CC(=O)Nc1ccc(Cl)c(Cl)c1)=N\NC(=O)Cc1ccccc1,30.4,"9.2 µM [rising, single point]","20.6 µM [falling, single point]"
CCN(CC)S(=O)(=O)c1cc(NC(=O)C2CSC3(C)CCC(=O)N23)ccc1C (stereo not drawn),-11.7,,
COc1ccc(C)cc1NC(=O)CSc1nc2ccccc2nc1N1CCCCC1,6.34,,"0.92 µM [rising, full curve, poor fit]"
